PubChem BioAssay AID1224830 – NIAID | 2016

- Purpose: 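Regulators of TLR4 signalling towards TNF-alpha in macrophage-like cells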 (primary screen)
- Cell system: human THP-1 monocytic leukaemia cells, TNF dual-luciferase reporter clone, PMA-differentiated to macrophage-like cells
- Reagents: siRNA pool against human genes, 50 nM
- Timing: LPS for 4 h, given about 3 days after siRNA transfection
- Conditions: bacterial LPS (TLR4 ligand), 10 ng/ml
- Measured: 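Ratio of firefly to renilla light, scaled to the plate median and expressed as a robust z-score per replicate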
- Reading the numbers: TNF reporter robust z-score: higher = stronger TNF reporter response to LPS
- Active means: 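Each well counts as active if its z-score is over 2.8 or under -1.5; controls are left without a call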
This is an unselected part of about 18,000 reagents tested. In the full data, about 2,900 (16%) are marked active. 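Calls are made per well; low scores hint the gene aids the LPS response, high scores that it dampens it.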 Repeated entries: four replicate wells of each siRNA pool.

gene symbol	TNF reporter robust z-score	Call
UBE3D (ubiquitin protein ligase E3D)	-2.08	active
UBE3D (ubiquitin protein ligase E3D)	-1.39	inactive
UBE3D (ubiquitin protein ligase E3D)	-1.36	inactive
UBE3D (ubiquitin protein ligase E3D)	-1.6	active
TRIM51BP (tripartite motif-containing 51B, pseudogene)	-0.74	inactive
TRIM51BP (tripartite motif-containing 51B, pseudogene)	-1.03	inactive
TRIM51BP (tripartite motif-containing 51B, pseudogene)	0.82	inactive
TRIM51BP (tripartite motif-containing 51B, pseudogene)	-0.4	inactive
EFL1 (elongation factor like GTPase 1)	-0.03	inactive
EFL1 (elongation factor like GTPase 1)	-0.49	inactive
EFL1 (elongation factor like GTPase 1)	4.62	active
EFL1 (elongation factor like GTPase 1)	-0.3	inactive
LGALS1 (galectin 1)	-0.97	inactive
LGALS1 (galectin 1)	0.09	inactive
LGALS1 (galectin 1)	0.03	inactive
LGALS1 (galectin 1)	1.81	inactive
TFAM (transcription factor A, mitochondrial)	0.23	inactive
TFAM (transcription factor A, mitochondrial)	2.05	inactive
TFAM (transcription factor A, mitochondrial)	1.23	inactive
TFAM (transcription factor A, mitochondrial)	1.15	inactive
TPT1P8 (TPT1 pseudogene 8)	1.48	inactive
TPT1P8 (TPT1 pseudogene 8)	0.83	inactive
TPT1P8 (TPT1 pseudogene 8)	-0.78	inactive
TPT1P8 (TPT1 pseudogene 8)	-0.42	inactive
GFAP (glial fibrillary acidic protein)	-0.31	inactive
GFAP (glial fibrillary acidic protein)	-0.26	inactive
GFAP (glial fibrillary acidic protein)	-0.86	inactive
GFAP (glial fibrillary acidic protein)	0.29	inactive
PRKG2 (protein kinase cGMP-dependent 2)	-1.53	active
PRKG2 (protein kinase cGMP-dependent 2)	-0.19	inactive
PRKG2 (protein kinase cGMP-dependent 2)	-0.34	inactive
PRKG2 (protein kinase cGMP-dependent 2)	0.43	inactive
SAP30BP (SAP30 binding protein)	-1.47	inactive
SAP30BP (SAP30 binding protein)	0.25	inactive
SAP30BP (SAP30 binding protein)	-0.31	inactive
SAP30BP (SAP30 binding protein)	-1.24	inactive
SNCAIP (synuclein alpha interacting protein)	-0.3	inactive
SNCAIP (synuclein alpha interacting protein)	-0.09	inactive
SNCAIP (synuclein alpha interacting protein)	0.03	inactive
SNCAIP (synuclein alpha interacting protein)	0.17	inactive
PRPF40B (pre-mRNA processing factor 40B)	-0.76	inactive
PRPF40B (pre-mRNA processing factor 40B)	-0.2	inactive
PRPF40B (pre-mRNA processing factor 40B)	-0.73	inactive
PRPF40B (pre-mRNA processing factor 40B)	-0.91	inactive

Continued; the last 2 above are carried over.
gene symbol	TNF reporter robust z-score	Call
PRPF40B (pre-mRNA processing factor 40B)	-0.73	inactive
PRPF40B (pre-mRNA processing factor 40B)	-0.91	inactive
PIP4P1 (phosphatidylinositol-4,5-bisphosphate 4-phosphatase 1)	0.54	inactive
PIP4P1 (phosphatidylinositol-4,5-bisphosphate 4-phosphatase 1)	0.97	inactive
PIP4P1 (phosphatidylinositol-4,5-bisphosphate 4-phosphatase 1)	-0.22	inactive
PIP4P1 (phosphatidylinositol-4,5-bisphosphate 4-phosphatase 1)	2.2	inactive
PDCD7 (programmed cell death 7)	0.27	inactive
PDCD7 (programmed cell death 7)	0.97	inactive
PDCD7 (programmed cell death 7)	0.4	inactive
PDCD7 (programmed cell death 7)	-0.82	inactive
CROT (carnitine O-octanoyltransferase)	-0.44	inactive
CROT (carnitine O-octanoyltransferase)	0.63	inactive
CROT (carnitine O-octanoyltransferase)	0.77	inactive
CROT (carnitine O-octanoyltransferase)	0.81	inactive
TMSB4Y (thymosin beta 4 Y-linked)	-0.18	inactive
TMSB4Y (thymosin beta 4 Y-linked)	2.24	inactive
TMSB4Y (thymosin beta 4 Y-linked)	2.21	inactive
TMSB4Y (thymosin beta 4 Y-linked)	0.81	inactive
MRPL55 (mitochondrial ribosomal protein L55)	-1.1	inactive
MRPL55 (mitochondrial ribosomal protein L55)	0.78	inactive
MRPL55 (mitochondrial ribosomal protein L55)	-1.22	inactive
MRPL55 (mitochondrial ribosomal protein L55)	0.38	inactive
SIDT2 (SID1 transmembrane family member 2)	-0.83	inactive
SIDT2 (SID1 transmembrane family member 2)	1.35	inactive
SIDT2 (SID1 transmembrane family member 2)	0.57	inactive
SIDT2 (SID1 transmembrane family member 2)	0.71	inactive
TAS2R19 (taste 2 receptor member 19)	0.01	inactive
TAS2R19 (taste 2 receptor member 19)	0.45	inactive
TAS2R19 (taste 2 receptor member 19)	0.33	inactive
TAS2R19 (taste 2 receptor member 19)	-0.12	inactive
ST3GAL4 (ST3 beta-galactoside alpha-2,3-sialyltransferase 4)	0.09	inactive
ST3GAL4 (ST3 beta-galactoside alpha-2,3-sialyltransferase 4)	-0.1	inactive
ST3GAL4 (ST3 beta-galactoside alpha-2,3-sialyltransferase 4)	-0.55	inactive
ST3GAL4 (ST3 beta-galactoside alpha-2,3-sialyltransferase 4)	-0.21	inactive
LIG1 (DNA ligase 1)	-1.22	inactive
LIG1 (DNA ligase 1)	-0.67	inactive
LIG1 (DNA ligase 1)	-1.53	active
LIG1 (DNA ligase 1)	-1.01	inactive
ZNF665 (zinc finger protein 665)	1.2	inactive
ZNF665 (zinc finger protein 665)	1.32	inactive
ZNF665 (zinc finger protein 665)	0.88	inactive
ZNF665 (zinc finger protein 665)	1.53	inactive
PCOTH (prostate and testis expressed opposite C1QTNF9B and MIPEP)	0.22	inactive
PCOTH (prostate and testis expressed opposite C1QTNF9B and MIPEP)	1.11	inactive
PCOTH (prostate and testis expressed opposite C1QTNF9B and MIPEP)	0.49	inactive
PCOTH (prostate and testis expressed opposite C1QTNF9B and MIPEP)	0.25	inactive
FAT1 (FAT atypical cadherin 1)	0.46	inactive
FAT1 (FAT atypical cadherin 1)	-0.76	inactive
FAT1 (FAT atypical cadherin 1)	-0.11	inactive
FAT1 (FAT atypical cadherin 1)	0.82	inactive
RGL1 (ral guanine nucleotide dissociation stimulator like 1)	0.84	inactive
RGL1 (ral guanine nucleotide dissociation stimulator like 1)	3.31	active
RGL1 (ral guanine nucleotide dissociation stimulator like 1)	2.11	inactive
RGL1 (ral guanine nucleotide dissociation stimulator like 1)	2.47	inactive
ZBTB46 (zinc finger and BTB domain containing 46)	2.3	inactive
ZBTB46 (zinc finger and BTB domain containing 46)	2.89	active
ZBTB46 (zinc finger and BTB domain containing 46)	4.36	active
ZBTB46 (zinc finger and BTB domain containing 46)	4.9	active
PCDHB14 (protocadherin beta 14)	0.72	inactive
PCDHB14 (protocadherin beta 14)	0.39	inactive
PCDHB14 (protocadherin beta 14)	-0.42	inactive
PCDHB14 (protocadherin beta 14)	0.09	inactive
CD180 (CD180 molecule)	-0.7	inactive
CD180 (CD180 molecule)	0.41	inactive
CD180 (CD180 molecule)	0.35	inactive
CD180 (CD180 molecule)	-0.1	inactive
P2RX3 (purinergic receptor P2X 3)	-0.48	inactive
P2RX3 (purinergic receptor P2X 3)	0.16	inactive
P2RX3 (purinergic receptor P2X 3)	0.91	inactive
P2RX3 (purinergic receptor P2X 3)	0.45	inactive
